Test results published in US20180360040A1, “PESTICIDAL COMPOUNDS AND THEIR USES” (priority 2015, published 2018).
Some of these results come from one statement about several compounds together.

What follows are compounds tested on Spodoptera littoralis (assay: Example B5: Spodoptera littoralis (Egyptian cotton leaf worm), sprayed cotton leaf discs). Conditions: application rate 200 ppm; L1 larvae; 3 days after infestation.
Assay type: in vivo
Method: Example B5: Spodoptera littoralis (Egyptian Cotton Leaf Worm)
Cotton leaf discs were placed onto agar in 24-well microtiter plates and sprayed with aqueous test solutions prepared from 10,000 ppm DMSO stock solutions. After drying the leaf discs were infested with five L1 larvae. The samples were assessed for mortality, anti-feeding effect, and growth inhibition in comparison to untreated samples 3 days after infestation. Control of Spodoptera littoralis by a test sample is given when at least one of the categories mortality, anti-feedant effect, and growth inhibition is higher than the untreated sample.

Compound | control (mortality, anti-feeding effect, growth inhibition)
CN1OC(c2ccc(F)cc2)(c2ccc3ccccc3c2)N=C1N(C)C(C)(C)C (stereo not drawn) [Compound P1.129] | at least 80%
CCC1(c2ccccc2Cl)N=C(NC(C)(C)C)N(C)O1 (stereo not drawn) [Compound P1.184] | at least 80%
CCCCCC1(c2ccccc2)N=C(NC(C)(C)C)N(C)O1 (stereo not drawn) [Compound P1.186] | at least 80%
CCCCCC1(c2ccc(F)cc2)N=C(NC(C)(C)C)N(C)O1 (stereo not drawn) [Compound P1.188] | at least 80%
CCCCCC1(c2ccc(F)cc2)N=C(N(C)C(C)(C)C)N(C)O1 (stereo not drawn) [Compound P1.189] | at least 80%
CCCC1(c2ccccc2C)N=C(NC(C)(C)C)N(C)O1 (stereo not drawn) [Compound P1.190] | at least 80%
CCCC1(c2ccc(C)cc2)N=C(NC(C)(C)C)N(C)O1 (stereo not drawn) [Compound P1.191] | at least 80%
CCCC1(c2ccccc2)N=C(NC(C)(C)CC)N(C)O1 (stereo not drawn) [Compound P1.192] | at least 80%
CCCC1(c2cccc(OC)c2)N=C(NC(C)(C)C)N(C)O1 (stereo not drawn) [Compound P1.197] | at least 80%
CCCCC1(c2ccccc2)N=C(NC(C)(C)C(F)(F)F)N(C)O1 (stereo not drawn) [Compound P1.201] | at least 80%
CCCCC1(c2ccccc2)N=C(NC(C)(C)C)N(C)O1 (stereo not drawn) [Compound P1.206] | at least 80%
CCCCC1(c2ccccc2)N=C(NC(C)(C)CC)N(C)O1 (stereo not drawn) [Compound P1.207] | at least 80%
CCCCC1(c2ccc(Br)cc2)N=C(NC(C)(C)C)N(C)O1 (stereo not drawn) [Compound P1.208] | at least 80%
CCCCC1(c2ccc(OC)cc2)N=C(NC(C)(C)C)N(C)O1 (stereo not drawn) [Compound P1.210] | at least 80%
CCC1(c2ccc(F)cc2)N=C(NC(C)(C)C(F)(F)F)N(C)O1 (stereo not drawn) [Compound P1.216] | at least 80%
CN1OC(CCc2ccc(Cl)cc2)(c2ccccc2)N=C1NC(C)(C)C (stereo not drawn) [Compound P1.219] | at least 80%
CCCCC1(c2ccc(F)cc2)N=C(NC(C)(C)C(F)(F)F)N(C)O1 (stereo not drawn) [Compound P1.220] | at least 80%
CCCCC1(c2ccc(Cl)cc2)N=C(NC(C)(C)C)N(C)O1 (stereo not drawn) [Compound P1.223] | at least 80%
CCCC1(c2ccc(F)cc2)N=C(NC(C)(C)C(F)(F)F)N(C)O1 (stereo not drawn) [Compound P1.224] | at least 80%
CCCN1OC(CCC)(c2ccccc2)N=C1NC(C)(C)C (stereo not drawn) [Compound P1.229] | at least 80%
CCCCCCC1(c2ccc(F)cc2)N=C(NC(C)(C)C)N(C)O1 (stereo not drawn) [Compound P1.230] | at least 80%
CCCC1(c2ccc(F)cc2)N=C(NC(C)(C)CC)N(C)O1 (stereo not drawn) [Compound P1.232] | at least 80%
CCCCC1(c2ccc(F)cc2)N=C(NC(C)(C)CC)N(C)O1 (stereo not drawn) [Compound P1.242] | at least 80%
CCCC1(c2ccc(Cl)cc2)N=C(NC(C)(C)C)N(CC)O1 (stereo not drawn) [Compound P1.255] | at least 80%
